PubChem BioAssay AID1053208 | Peter MacCallum Cancer Centre | 2014
Shown is an unselected part of about 17,000 reagents. 788 of all reagents (4.7%) count as active. 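Calls rest on z-score classes alone; an extra cut-off of viability at most 70% of control was not applied to them.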 A number with no mark means an inactive call.

Test: 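Genes whose silencing cuts survival of bone tumour cells only with doxorubicin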 (primary screen)
Cells: mouse osteosarcoma cells, early-passage culture from an engineered mouse model of fibroblastic bone tumour
Reagents: siRNA pool against mouse genes, 40 nM
Duration: about 120 h (48 h before drug, then 72 h with drug)
Challenge: doxorubicin 100 nM for 72 h, roughly 30-40% inhibitory dose
Measurement: 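Viability read as ATP luminescence after 72 h of 100 nM doxorubicin or none, duplicate wells averaged, scaled to non-targeting siRNA, then expressed as robust z-scores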
Scale: viability z-score with doxorubicin and doxorubicin viability vs non-targeting: higher = more viable cells under doxorubicin; viability z-score without drug: higher = more viable cells with knock-down alone; z-score of drug to no-drug ratio: higher = less drug sensitisation by knock-down
Call rule: 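a pool counts as active when its viability z-score with doxorubicin is -2 or below and its z-score without drug lies between -2 and 2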

target gene	combined z-score class	viability z-score with doxorubicin	viability z-score without drug	z-score of drug to no-drug ratio	doxorubicin viability vs non-targeting
Gm5148 (GeneID 381438)	no change with or without drug	0	-1.52	1.24	0.94
Lmf2 (GeneID 105847)	no change with or without drug	-0.34	-0.67	0.22	0.91
1700028K03Rik (GeneID 76421)	no change with or without drug	-1.46	0.51	-1.69	0.81
Or51a8 (GeneID 259114)	no change with or without drug	-1.12	-0.51	-0.79	0.84
Ankrd55 (GeneID 77318)	no change with or without drug	-0.11	-0.17	0.11	0.93
Lrrc8a (GeneID 241296)	low cell count with and without drug	-3.37	-2.53	-2.02	0.64
Rit2 (GeneID 19762)	no change with or without drug	1.8	1.85	0.67	1.1
Foxo6 (GeneID 329934)	no change with or without drug	0	-0.67	0.56	0.94
Or52a5 (GeneID 18369)	no change with or without drug	-0.79	-1.18	0.11	0.87
Mpdz (GeneID 17475)	low cell count with and without drug	-2.02	-2.53	-0.34	0.76
Zfyve19 (GeneID 72008)	no change with or without drug	-0.22	0	-0.11	0.92
Aox3 (GeneID 71724)	no change with or without drug	0.11	0.51	-0.11	0.95
Frmd3 (GeneID 242506)	no change with or without drug	-1.35	-0.17	-1.24	0.82
Or5g25 (GeneID 258566)	no change with or without drug	1.57	1.35	0.79	1.08
Prrg4 (GeneID 228413)	no change with or without drug	0	0.84	-0.45	0.94
Osgep (GeneID 66246)	low cell count with doxorubicin only (active)	-2.47	-1.85	-1.35	0.72
Hars2 (GeneID 70791)	no change with or without drug	0.22	0.84	-0.22	0.96
Or8a1b (GeneID 80706)	no change with or without drug	-1.12	-1.18	-0.34	0.84
Taf11 (GeneID 68776)	no change with or without drug	0.9	0.17	0.9	1.02
G0s2 (GeneID 14373)	no change with or without drug	1.12	1.18	0.45	1.04
Ifi44l (GeneID 15061)	high cell count with doxorubicin only	2.25	1.18	1.57	1.14
Drg2 (GeneID 13495)	no change with or without drug	0.22	-0.84	1.01	0.96
Rasgef1b (GeneID 320292)	high cell count with doxorubicin only	2.02	1.69	1.01	1.12
Or9a2 (GeneID 258569)	no change with or without drug	-1.8	-1.18	-1.01	0.78
Cnot11 (GeneID 52846)	no change with or without drug	0	0.67	-0.34	0.94
Cypt1 (GeneID 66742)	high cell count without drug only	0.67	3.2	-1.12	1
Rac2 (GeneID 19354)	no change with or without drug	0.67	-0.51	1.24	1
Fam221a (GeneID 231946)	no change with or without drug	-0.45	0.51	-0.67	0.9
Capn7 (GeneID 12339)	no change with or without drug	-0.56	-1.18	0.34	0.89
Pdgfra (GeneID 18595)	no change with or without drug	1.8	0.84	1.35	1.1
Uqcr11 (GeneID 66594)	high cell count with doxorubicin only	2.59	1.01	2.02	1.17
Rem2 (GeneID 140743)	no change with or without drug	-1.01	0.34	-1.12	0.85
Pira4 (GeneID 18727)	no change with or without drug	0.22	0.34	0.11	0.96
Ankrd61 (GeneID 66729)	high cell count without drug only	1.35	2.02	0.11	1.06
Socs2 (GeneID 216233)	no change with or without drug	-0.34	0.34	-0.45	0.91
Tead1 (GeneID 21676)	no change with or without drug	-0.22	-0.84	0.45	0.92
Dnaaf2 (GeneID 109065)	no change with or without drug	-0.79	-0.84	-0.11	0.87
Adarb1 (GeneID 110532)	no change with or without drug	1.01	1.18	0.34	1.03
Nhlrc3 (GeneID 212114)	no change with or without drug	0.45	1.85	-0.67	0.98

Next part; the last 6 above are carried over.
target gene	combined z-score class	viability z-score with doxorubicin	viability z-score without drug	z-score of drug to no-drug ratio	doxorubicin viability vs non-targeting
Ankrd61 (GeneID 66729)	high cell count without drug only	1.35	2.02	0.11	1.06
Socs2 (GeneID 216233)	no change with or without drug	-0.34	0.34	-0.45	0.91
Tead1 (GeneID 21676)	no change with or without drug	-0.22	-0.84	0.45	0.92
Dnaaf2 (GeneID 109065)	no change with or without drug	-0.79	-0.84	-0.11	0.87
Adarb1 (GeneID 110532)	no change with or without drug	1.01	1.18	0.34	1.03
Nhlrc3 (GeneID 212114)	no change with or without drug	0.45	1.85	-0.67	0.98
H2-Ob (GeneID 15002)	no change with or without drug	1.12	-1.18	2.25	1.04
H2-Oa (GeneID 15001)	no change with or without drug	0.9	-1.18	2.02	1.02
Myoc (GeneID 17926)	no change with or without drug	0.22	-0.17	0.45	0.96
Dync1li2 (GeneID 234663)	no change with or without drug	-1.8	-0.84	-1.24	0.78
Add1 (GeneID 11518)	no change with or without drug	1.46	1.69	0.45	1.07
Tll2 (GeneID 24087)	no change with or without drug	0.22	0	0.34	0.96
A030005L19Rik (GeneID 77922)	no change with or without drug	0.67	1.18	0	1
Ankrd46 (GeneID 68839)	no change with or without drug	-0.22	0.34	-0.34	0.92
Znhit2 (GeneID 29805)	no change with or without drug	0	-1.01	0.9	0.94
Nr4a1 (GeneID 15370)	no change with or without drug	-0.45	0.17	-0.45	0.9
Bcl6 (GeneID 12053)	no change with or without drug	0.9	-0.51	1.46	1.02
Or4c12 (GeneID 258338)	no change with or without drug	-0.67	-0.51	-0.22	0.88
Nae1 (GeneID 234664)	no change with or without drug	-0.56	-0.51	-0.11	0.89
Cptp (GeneID 79554)	no change with or without drug	-0.9	-0.51	-0.56	0.86
Slc49a4 (GeneID 224132)	high cell count with doxorubicin only	2.59	0.84	2.14	1.17
Zbp1 (GeneID 58203)	no change with or without drug	-1.12	-0.51	-0.79	0.84
Ssbp3 (GeneID 72475)	no change with or without drug	0.56	1.18	-0.11	0.99
Wnt8a (GeneID 20890)	no change with or without drug	0.67	-0.51	1.24	1
Eva1b (GeneID 230752)	no change with or without drug	1.24	1.18	0.56	1.05
Map4k3 (GeneID 225028)	no change with or without drug	1.12	-0.51	1.69	1.04
Gar1 (GeneID 68147)	low cell count without drug only	-0.11	-2.36	1.91	0.93
Cdnf (GeneID 227526)	low cell count with doxorubicin only (active)	-2.02	-1.18	-1.35	0.76
C1rl (GeneID 232371)	high cell count with and without drug	2.25	2.53	0.67	1.14
Slc35a5 (GeneID 74102)	no change with or without drug	-1.24	-0.51	-0.9	0.83
